According to paper PMC4961794:
These are yes or no findings as the source states them, for the method shown. In cells and extracts the contact can be indirect. A yes stands for co-enrichment or nearness to the bait. Other partners may have been found.

Protein sequences, listed by entry. Tags and fused reporters are not part of them.
UniProt Q9NRC8: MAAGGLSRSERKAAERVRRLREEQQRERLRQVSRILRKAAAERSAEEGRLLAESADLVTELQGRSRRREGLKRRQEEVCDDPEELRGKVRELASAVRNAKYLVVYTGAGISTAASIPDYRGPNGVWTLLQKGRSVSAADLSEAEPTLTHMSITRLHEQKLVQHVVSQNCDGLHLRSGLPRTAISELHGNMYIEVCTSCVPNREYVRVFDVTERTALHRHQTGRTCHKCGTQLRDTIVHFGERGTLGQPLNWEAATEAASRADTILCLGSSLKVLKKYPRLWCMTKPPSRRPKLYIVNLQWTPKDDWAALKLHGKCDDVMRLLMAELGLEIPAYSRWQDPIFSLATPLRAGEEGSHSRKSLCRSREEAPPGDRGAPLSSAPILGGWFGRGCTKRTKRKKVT
UniProt P09874: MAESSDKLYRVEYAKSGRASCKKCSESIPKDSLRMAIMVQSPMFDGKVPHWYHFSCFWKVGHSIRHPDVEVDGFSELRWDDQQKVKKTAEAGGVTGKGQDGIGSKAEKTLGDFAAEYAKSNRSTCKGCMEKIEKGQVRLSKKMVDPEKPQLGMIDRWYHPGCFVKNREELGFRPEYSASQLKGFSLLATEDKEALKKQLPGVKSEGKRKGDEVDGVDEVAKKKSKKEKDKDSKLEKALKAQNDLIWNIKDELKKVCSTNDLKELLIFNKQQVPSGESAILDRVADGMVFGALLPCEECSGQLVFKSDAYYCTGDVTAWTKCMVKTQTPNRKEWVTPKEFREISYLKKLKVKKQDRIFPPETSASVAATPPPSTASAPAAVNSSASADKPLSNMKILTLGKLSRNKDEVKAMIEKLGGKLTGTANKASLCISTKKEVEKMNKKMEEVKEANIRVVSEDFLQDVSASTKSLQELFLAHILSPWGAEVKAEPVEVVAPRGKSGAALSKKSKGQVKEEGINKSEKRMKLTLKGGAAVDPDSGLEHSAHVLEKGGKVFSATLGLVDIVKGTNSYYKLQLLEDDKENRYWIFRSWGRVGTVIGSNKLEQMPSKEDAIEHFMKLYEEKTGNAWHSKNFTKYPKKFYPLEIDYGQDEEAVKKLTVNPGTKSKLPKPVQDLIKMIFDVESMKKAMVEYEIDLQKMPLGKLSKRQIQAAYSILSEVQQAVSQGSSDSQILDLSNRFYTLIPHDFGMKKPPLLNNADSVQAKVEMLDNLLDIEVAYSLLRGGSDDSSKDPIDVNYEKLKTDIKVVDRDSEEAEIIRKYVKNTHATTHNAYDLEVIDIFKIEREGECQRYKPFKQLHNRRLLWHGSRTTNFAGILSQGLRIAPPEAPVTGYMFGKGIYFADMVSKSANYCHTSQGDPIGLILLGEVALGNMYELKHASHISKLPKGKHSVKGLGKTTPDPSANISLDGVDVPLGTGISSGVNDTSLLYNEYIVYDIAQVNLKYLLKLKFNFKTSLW
UniProt Q92878: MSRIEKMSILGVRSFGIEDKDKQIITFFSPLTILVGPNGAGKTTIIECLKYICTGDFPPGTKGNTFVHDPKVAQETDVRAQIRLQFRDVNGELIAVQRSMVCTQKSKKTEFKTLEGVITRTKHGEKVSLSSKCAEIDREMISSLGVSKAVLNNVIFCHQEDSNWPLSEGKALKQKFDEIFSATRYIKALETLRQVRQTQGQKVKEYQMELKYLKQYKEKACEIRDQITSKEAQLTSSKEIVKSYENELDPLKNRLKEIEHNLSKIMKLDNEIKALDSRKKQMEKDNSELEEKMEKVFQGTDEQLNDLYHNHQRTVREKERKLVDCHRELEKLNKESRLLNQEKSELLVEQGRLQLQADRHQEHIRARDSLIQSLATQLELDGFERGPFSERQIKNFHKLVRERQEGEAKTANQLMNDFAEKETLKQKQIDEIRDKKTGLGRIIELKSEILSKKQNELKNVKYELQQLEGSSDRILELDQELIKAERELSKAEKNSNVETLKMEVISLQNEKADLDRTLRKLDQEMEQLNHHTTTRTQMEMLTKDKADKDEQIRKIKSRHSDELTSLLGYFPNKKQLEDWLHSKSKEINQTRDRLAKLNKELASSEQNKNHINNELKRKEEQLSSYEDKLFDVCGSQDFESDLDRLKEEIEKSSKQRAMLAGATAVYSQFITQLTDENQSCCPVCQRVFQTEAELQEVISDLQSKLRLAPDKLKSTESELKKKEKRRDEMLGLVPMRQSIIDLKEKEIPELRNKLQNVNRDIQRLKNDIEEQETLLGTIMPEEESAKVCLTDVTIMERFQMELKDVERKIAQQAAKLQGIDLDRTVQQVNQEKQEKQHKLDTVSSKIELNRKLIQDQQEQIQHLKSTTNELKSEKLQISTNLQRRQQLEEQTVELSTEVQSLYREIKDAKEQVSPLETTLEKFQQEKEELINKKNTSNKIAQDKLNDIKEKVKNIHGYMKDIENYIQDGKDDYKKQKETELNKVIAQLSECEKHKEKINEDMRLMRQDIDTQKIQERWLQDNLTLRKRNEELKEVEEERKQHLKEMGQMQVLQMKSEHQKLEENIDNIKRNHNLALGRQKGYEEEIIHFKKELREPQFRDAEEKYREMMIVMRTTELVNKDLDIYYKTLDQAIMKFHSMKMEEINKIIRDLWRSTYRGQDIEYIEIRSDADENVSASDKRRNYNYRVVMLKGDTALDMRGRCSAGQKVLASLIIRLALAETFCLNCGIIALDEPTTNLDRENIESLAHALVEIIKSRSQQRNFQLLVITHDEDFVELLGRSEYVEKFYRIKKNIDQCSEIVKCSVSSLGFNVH
UniProt P12956: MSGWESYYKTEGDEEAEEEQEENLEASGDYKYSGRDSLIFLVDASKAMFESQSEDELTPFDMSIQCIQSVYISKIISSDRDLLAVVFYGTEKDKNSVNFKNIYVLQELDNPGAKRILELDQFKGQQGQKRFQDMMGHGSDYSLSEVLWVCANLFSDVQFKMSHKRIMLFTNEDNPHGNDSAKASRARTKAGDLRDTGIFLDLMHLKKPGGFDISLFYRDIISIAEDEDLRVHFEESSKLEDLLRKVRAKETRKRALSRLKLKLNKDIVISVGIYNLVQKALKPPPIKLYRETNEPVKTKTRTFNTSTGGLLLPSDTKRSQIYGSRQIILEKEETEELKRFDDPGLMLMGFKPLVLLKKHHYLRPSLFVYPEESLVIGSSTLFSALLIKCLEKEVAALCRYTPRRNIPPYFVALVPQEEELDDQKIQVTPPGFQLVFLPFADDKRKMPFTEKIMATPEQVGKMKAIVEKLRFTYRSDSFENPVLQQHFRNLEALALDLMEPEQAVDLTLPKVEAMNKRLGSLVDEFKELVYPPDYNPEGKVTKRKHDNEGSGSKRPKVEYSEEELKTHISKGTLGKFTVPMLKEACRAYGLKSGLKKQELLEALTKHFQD
UniProt P13010: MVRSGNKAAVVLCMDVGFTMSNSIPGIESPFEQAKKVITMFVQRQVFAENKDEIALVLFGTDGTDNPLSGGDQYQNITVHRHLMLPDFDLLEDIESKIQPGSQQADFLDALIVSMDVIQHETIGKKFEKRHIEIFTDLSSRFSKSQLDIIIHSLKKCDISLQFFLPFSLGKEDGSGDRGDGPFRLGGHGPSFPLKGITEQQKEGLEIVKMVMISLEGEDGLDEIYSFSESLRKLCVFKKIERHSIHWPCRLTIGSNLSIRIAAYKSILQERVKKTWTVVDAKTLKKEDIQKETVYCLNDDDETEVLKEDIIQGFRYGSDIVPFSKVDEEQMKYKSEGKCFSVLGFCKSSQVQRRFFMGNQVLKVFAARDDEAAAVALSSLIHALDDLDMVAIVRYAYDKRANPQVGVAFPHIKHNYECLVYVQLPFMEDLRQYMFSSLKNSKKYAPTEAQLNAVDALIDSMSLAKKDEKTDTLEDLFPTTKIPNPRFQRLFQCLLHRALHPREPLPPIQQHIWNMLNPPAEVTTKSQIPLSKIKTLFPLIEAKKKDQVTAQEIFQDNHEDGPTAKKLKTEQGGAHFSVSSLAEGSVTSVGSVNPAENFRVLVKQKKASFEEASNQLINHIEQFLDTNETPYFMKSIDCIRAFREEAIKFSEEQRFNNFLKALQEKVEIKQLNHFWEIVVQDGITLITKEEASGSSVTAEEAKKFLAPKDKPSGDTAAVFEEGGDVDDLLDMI

Target: FLAG-SIRT7wt (human) (UniProt Q9NRC8)
Assay: affinity purification with mass spectrometry; whole-cell extracts of HEK293T cells expressing vector or FLAG-SIRT7wt; lysis buffer 50 mM Tris-HCl pH 7.4, 150 mM NaCl, 0.3% Nonidet P-40, 1 mM DTT, 5 mM EDTA; anti-FLAG M2 gel 2 h at 4 °C; eluted with FLAG peptide; gel silver stained; bands analysed by LC-MS/MS

binding, binds:
PARP1 (from UniProt P09874 1-1014)
RAD50 (from UniProt Q92878 1-1312)
DNA-PKcs (from UniProt P78527 1-4128)
Ku70 (from UniProt P12956 1-609)
Ku80 (from UniProt P13010 1-732)
